PubChem BioAssay AID1159584, Peter MacCallum Cancer Centre, 2016
Here is an unselected part of about 18,000 reagents. Not all columns of the deposit are shown. The record does not give: the amount of reagent, the time to read-out.

- Aim: 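Genes that CDH1-null MCF10A cells selectively depend on to survive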 (primary screen)
- Cell system: human MCF10A breast epithelial cells, parental and CDH1-null
- Reagent: siRNA against human genes
- Read-out: 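Cell viability by CellTiter-Glo ATP luminescence, each line scaled to the mean of mock wells across plates, then CDH1-null over parental ratio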
- Direction: CDH1-null / parental viability ratio: higher = CDH1-null cells survive relatively better than parental

FGB: CDH1-null / parental viability ratio = 0.93
FBXL3: CDH1-null / parental viability ratio = 1.07
PID1: CDH1-null / parental viability ratio = 1.01
NAA50: CDH1-null / parental viability ratio = 0.7
GPR107: CDH1-null / parental viability ratio = 1.19
NPHP4: CDH1-null / parental viability ratio = 1.46
VASH1: CDH1-null / parental viability ratio = 1.07
TEX28: CDH1-null / parental viability ratio = 1.35
ZNF691: CDH1-null / parental viability ratio = 0.94
ZSCAN20: CDH1-null / parental viability ratio = 0.84
THEM5: CDH1-null / parental viability ratio = 1
TFAP2D: CDH1-null / parental viability ratio = 0.73
DPAGT1: CDH1-null / parental viability ratio = 0.8
ARG1: CDH1-null / parental viability ratio = 0.89
ITPRID1: CDH1-null / parental viability ratio = 1.15
ATG4C: CDH1-null / parental viability ratio = 0.96
OR7G2: CDH1-null / parental viability ratio = 1.02
SMAD2: CDH1-null / parental viability ratio = 1.11
KLF3: CDH1-null / parental viability ratio = 0.84
CRY1: CDH1-null / parental viability ratio = 0.76
MEIS2: CDH1-null / parental viability ratio = 0.9
BET1: CDH1-null / parental viability ratio = 1
AIM2: CDH1-null / parental viability ratio = 1.22
TRIM6-TRIM34: CDH1-null / parental viability ratio = 0.94
VPS35L: CDH1-null / parental viability ratio = 0.86
PI4KAP2: CDH1-null / parental viability ratio = 0.95
OR5M8: CDH1-null / parental viability ratio = 0.93
PAX7: CDH1-null / parental viability ratio = 0.83
NTN1: CDH1-null / parental viability ratio = 1.14
BCAP29: CDH1-null / parental viability ratio = 1.06
ZNF79: CDH1-null / parental viability ratio = 1.79
ZNF613: CDH1-null / parental viability ratio = 1.02
PITX1: CDH1-null / parental viability ratio = 1.4
SPRR2G: CDH1-null / parental viability ratio = 0.97
RTF1: CDH1-null / parental viability ratio = 0.74

2 entries from above, set out differently:
{"gene":"PI4KAP2","CDH1-null / parental viability ratio":0.95}
{"gene":"OR5M8","CDH1-null / parental viability ratio":0.93}
